Sequences and labels used below:
T1: GST-tagged mouse GlialCAM cytosolic tail (mouse) (UniProt Q640R3)
T1 sequence: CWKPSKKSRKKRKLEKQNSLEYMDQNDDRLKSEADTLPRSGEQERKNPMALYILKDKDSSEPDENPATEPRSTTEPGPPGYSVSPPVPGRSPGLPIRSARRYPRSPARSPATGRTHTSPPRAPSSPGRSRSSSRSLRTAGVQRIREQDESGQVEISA

B1: DCLK1 (protein, UniProt Q9JLM8 1-756)
chain: MSFGRDMELEHFDERDKAQRYSRGSRVNGLPSPTHSAHCSFYRTRTLQTLSSEKKAKKVRFYRNGDRYFKGIVYAISPDRFRSFEALLADLTRTLSDNVNLPQGVRTIYTIDGLKKISSLDQLVEGESYVCGSIEPFKKLEYTKNVNPNWSVNVKTTSASRAVSSLATAKGGPSEVRENKDFIRPKLVTIIRSGVKPRKAVRILLNKKTAHSFEQVLTDITDAIKLDSGVVKRLYTLDGKQVMCLQDFFGDDDIFIACGPEKFRYQDDFLLDESECRVVKSTSYTKIASASRRGTTKSPGPSRRSKSPASTSSVNGTPGSQLSTPRSGKSPSPSPTSPGSLRKQRISQHGGSSTSLSSTKVCSSMDENDGPGEGDELGRRHSLQRGWRREESEEGFQIPATITERYKVGRTIGDGNFAVVKECIERSTAREYALKIIKKSKCRGKEHMIQNEVSILRRVKHPNIVLLIEEMDVPTELYLVMELVKGGDLFDAITSTSKYTERDASGMLYNLASAIKYLHSLNIVHRDIKPENLLVYEHQDGSKSLKLGDFGLATIVDGPLYTVCGTPTYVAPEIIAETGYGLKVDIWAAGVITYILLCGFPPFRGSGDDQEVLFDQILMGQVDFPSPYWDNVSDSAKELINMMLLVNVDQRFSAVQVLEHPWVNDDGLPENEHQLSVAGKIKKHFNTGPKPSSTAAGVSVIATTALDKERQVFRRRRNQDVRSRYKAQPAPPELNSESEDYSPSSSETVRSPNSPF
B2: ADD3 (protein, UniProt Q9QYB5 1-706)
chain: MSSDTSPAVVTTPPPPSMPHKERYFDRINESDPEYLRERNMSPDLRQDFNMMEQRKRVTQILQSPAFREDLECLIQEQMKKGHNPSGLLALQQIADYIVTSSFSGFSSPSLSLGMVTPINDLPGADTSSYVKGEKLTRCKLASLYRLADLFGWAHLANTYISVRISKEQDHIIIIPRGLSFSEATASTLVKVNIIGEVVDQGSTDLKIDHTGFSPHAAIYSTRPDVKCVIHIHTLATAAVSSMKCGILPISQESLILGDVAYYDYQGSLDEEEERIELQKVLGPSCKVLVLRNHGMVALGETLEEAFHYIFNVQMACEIQVQAVAGAGGVDNLLVLDLQKYKAFTHGVAMSGGGGVNMASHQKWKVGEIEFEGLMRTLDNLGYRTGYAYRHPLVREKPRHKSDVEIPATVTAFSFEDDSAPLSPLKFMAQRQQREKTRWLNSPNTYMKVNVPEESRNGETSPRTKITWMKAEDSSKVSSGTPIKIEDPNQFVPLNTNPTEVLEKRNKIREQNRYDLKTAGPQSQLLAGIVVDKPPSTMQFDDDDQGPPAPPNPFSHLLEGELEEYTKTIERKQQGLDDAEQGSLSDDAASVSQIQSQTQSPQSVPERLEENHELFSKSFTSMDAPVMIMNGKDEMHDVEDELAQRVSRLTTSTTIENIEITIKSPERTEEVLSPDGSPSKSPSKKKKKFRTPSFLKKNKKKEKVEA
B3: SPON1 (protein, UniProt Q8VCC9 29-807)
chain: FSDETLDKVTKSEGYCSRILRAQGTRREGYTEFSLRVEGDPDFYKPGSSYRVTLSAAPPSYFRGFTLIALKENQEGDKEEDHAGTFQIIDEEETQFMSNCPVAVTESTPRRRTRIQVFWIAPPTGTGCVILKASIVQKRIIYFQDEGSLTKKLCEQDPTLDGVTDRPILDCCACGTAKYRLTFYGNWSEKTHPKDYPRRANHWSAIIGGSHSKNYVLWEYGGYASEGVKQVAELGSPVKMEEEIRQQSDEVLTVIKAKAQWPAWQPVNVRAAPSAEFSVDRTRHLMSFLTMMGPSPDWNVGLSAEDLCTKECGWVQKVVQDLIPWDAGTDSGVTYESPNKPTIPQEKIRPLTSLDHPQSPFYDPEGGSITQVARVVIERIARKGEQCNIVPDNVDDIVADLAPEEKDEDDTPETCIYSNWSPWSACSSSTCEKGKRMRQRMLKAQLDLSVPCPDTQDFQPCMGPGCSDEDGSTCTMSEWITWSPCSVSCGMGMRSRERYVKQFPEDGSVCMLPTEETEKCTVNEECSPSSCLVTEWGEWDDCSATCGMGMKKRHRMVKMSPADGSMCKAETSQAEKCMMPECHTIPCLLSPWSEWSDCSVTCGKGMRTRQRMLKSLAELGDCNEDLEQAEKCMLPECPIDCELSEWSQWSECNKSCGKGHMIRTRTIQMEPQFGGVPCPETVQRKKCRTRKCLRSPSVQKLRWREARESRRSEQLREESDGEQFPGCRMRPWTAWSECTKLCGGGIQERYMTVKKRFKSSQFTSCKDKKEIRACNVHPC
B4: MYEF2 (protein, UniProt Q8C854 1-591)
chain: MADADKSEAAAGDDGSQQQPAEPRRDTHPGEPEKPPRSSANGVKMENDESVKEEKSDLKEKSTGNKKANRFHPYSKDKNSGTGEKKGPNRNRVFISNIPYDMKWQAIKDLMREKVGEVTYVELFKDAEGKSRGCGVVEFKDEEFVKKALETMNKYDLSGRPLNIKEDPDGENARRALQRTGTSFQGSHASDVGSGLVNLPPSILNNPNIPPEVISNLQAGRLGSTIFVANLDFKVGWKKLKEVFSIAGTVKRADIKEDKDGKSRGMGTVTFEQAIEAVQAISMFNGQFLFDRPMHVKMDDKSVPHEDYRSHDSKTSQLPRGLGGIGMGLGPGGQPISASQLNITGVMGNLGPSGMGMDGPGFGGVNRIGGGVGFGGLEAMNSMAGFGGVGRMGELYRGAMTSSMERDFGRGDIGLSRGFGDSFGRLGSAMIGGFAGRIGASNMGPVGTGISGSMSGMSTVTGGMGMGLDRMSSSFDRMGPGIGAILERSIDVDRGFLSGPMGSGMRDRLGSKGNQIFVRNLPFDLTWQKLKEKFSQCGHVMFAEIKMENGKSKGCGTVRFESAESAEKACRIMNGIKISGREIDVRLDRNA
B5: AMER2 (protein, UniProt Q8CCJ4 1-672)
chain: METGRSRGGGAAVSERGGGARAGVCGRQEQAGALAADMDSHCECAAETPAAEPPSGKINKAAFKLFKKRKSGGTMPSIFGVKNKGDGKSSGPTGMVRSRTHDGLAEVLVLEGSKKEEPPGGSDHSGARPIPGPPKPSGPGLGSLASSSVAKSHSFFSLLKKNGRSETGKGDHAEASKAGGKQKRGLKGIFSSMRWHRRDKRGKEEEEKAVRAAGPGNLVLPGSLTASLECVKEEPPRAARRPDSPGQDASRHAAGEPAGGEQAPASAESAPERICLEAGSPTGSGDQSSRGEDAEGHRREEKPGAALESGAGEVQAAEDASKTGDVPIKTVPLVDSEGGSGRASAVPDPSSVDPPSDPSADRICLMFSDVTSLKSFDSLTGCGDIIADPEEEAGPSCDKHVPGPGKPVLSKKNASVVAYQGGGEEMASPDQVDDTYLPEFWDMLSQTEDQGQGTQEGAAKAATASDIKLAPETSSDTRCGEAAKDMSSVKRRRLHRIPIESQQKEEPKHPEKEHQEGVPNSDEGYWDSTTPGPEEESISNSSSSKKVVIPRDSDSGDALCDLYVEPEASPATLPATEDPPCLSRLKPVSPGTITCPLRTPGSLLKDSKIPISIKHLSNLPSSHPVVHQQPARSEVPRTKIPVSKVLVRRVSNRGLAGTTIRAAACHDSAKKL
B6: Ras GTPase-activating protein-binding protein G3BP2 (protein, UniProt P97379 1-482)
chain: MVMEKPSPLLVGREFVRQYYTLLNKAPEYLHRFYGRNSSYVHGGVDASGKPQEAVYGQNDIHHKVLSLNFSECHTKIRHVDAHATLSDGVVVQVMGLLSNSGQPERKFMQTFVLAPEGSVPNKFYVHNDMFRYEDEVFGDSEPELDEESEDEVEEEQEDRQPSPEPVQENANSAYYDAHPVTNGIEEPLEESSHEPEPEPESETKTEELKPQVEEKHLEELEEKSATPPPAEPASLPQEPPKAFSWASVTSKNLPPSGTVSSSGIPPHVKAPVSQPRVDAKPEVQSQPPRVREQRPRERPGFPPRGPRPGRGDMEQNDSDNRRIIRYPDSHQLFVGNLPHDIDENELKEFFMSFGNVVELRINTKGVGGKLPNFGFVVFDDSEPVQRILIAKPIMFRGEVRLNVEEKKTRAARERETRGGGDDRRDIRRNDRGPGGPRGIVGGGMMRDRDGRGPPPRGGMTQKLGSGRGTGQMEGRFTGQRR
B7: MARCKS (protein, UniProt P26645 1-309)
chain: MGAQFSKTAAKGEATAERPGEAAVASSPSKANGQENGHVKVNGDASPAAAEPGAKEELQANGSAPAADKEEPASGSAATPAAAEKDEAAAATEPGAGAADKEAAEAEPAEPSSPAAEAEGASASSTSSPKAEDGAAPSPSSETPKKKKKRFSFKKSFKLSGFSFKKSKKESGEGAEAEGATAEGAKDEAAAAAGGEGAAAPGEQAGGAGAEGAAGGEPREAEAAEPEQPEQPEQPAAEEPQAEEQSEAAGEKAEEPAPGATAGDASSAAGPEQEAPAATDEAAASAAPAASPEPQPECSPEAPPAPTAE

These are yes or no findings as the source states them, for the method shown. In cells and extracts the contact can be indirect. A yes stands for co-enrichment or nearness to the bait. Other partners may have been found. Where a sequence is shown, tags or fusion partners need not be part of it.

We go through 7 molecules from publication doi:10.1101/2025.10.03.680331.

In the test the target is T1, GST-tagged mouse GlialCAM cytosolic tail (mouse). Kind of test: affinity purification with mass spectrometry.
For the molecule B1, the binding result is listed as “binds”. With B2, the binding result is on record as “binds”. For B3, the binding entry is “binds”. In the case of B4 it was “binds”; in that of B5, “binds”; in that of B6, “binds”. For B7, the binding entry is “binds”.
